These are yes or no findings as the source states them, for the method shown. Binding seen in cells or lysates may run through a third protein. Here binding means that the protein was enriched with, or labelled near, the bait; the list need not be complete. For some of these results: Sequences can lack the tags named with a protein.

Amino acid sequences for entries named in this document (tags omitted).
UniProt O35465: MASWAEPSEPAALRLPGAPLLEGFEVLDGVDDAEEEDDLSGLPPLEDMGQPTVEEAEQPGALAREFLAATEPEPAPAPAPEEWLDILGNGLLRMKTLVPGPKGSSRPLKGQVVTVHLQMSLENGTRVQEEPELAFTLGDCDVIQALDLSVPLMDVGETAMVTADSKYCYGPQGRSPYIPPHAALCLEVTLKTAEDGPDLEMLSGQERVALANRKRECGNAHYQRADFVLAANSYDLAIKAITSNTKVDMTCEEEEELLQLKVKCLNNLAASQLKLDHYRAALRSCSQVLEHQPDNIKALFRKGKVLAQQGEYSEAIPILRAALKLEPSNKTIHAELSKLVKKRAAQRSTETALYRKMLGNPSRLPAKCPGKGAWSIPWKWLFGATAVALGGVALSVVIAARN
UniProt Q14318: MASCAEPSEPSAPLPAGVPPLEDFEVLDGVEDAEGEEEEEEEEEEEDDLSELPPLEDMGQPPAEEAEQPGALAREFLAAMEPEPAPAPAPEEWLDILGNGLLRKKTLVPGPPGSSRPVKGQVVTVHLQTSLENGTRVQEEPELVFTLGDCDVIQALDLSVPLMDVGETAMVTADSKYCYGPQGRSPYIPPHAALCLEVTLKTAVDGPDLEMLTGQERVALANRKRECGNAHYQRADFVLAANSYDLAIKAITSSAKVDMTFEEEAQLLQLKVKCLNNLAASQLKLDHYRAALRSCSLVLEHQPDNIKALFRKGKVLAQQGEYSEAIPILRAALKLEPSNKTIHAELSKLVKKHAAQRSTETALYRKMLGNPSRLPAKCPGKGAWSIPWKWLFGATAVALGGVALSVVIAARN
UniProt Q9QY76: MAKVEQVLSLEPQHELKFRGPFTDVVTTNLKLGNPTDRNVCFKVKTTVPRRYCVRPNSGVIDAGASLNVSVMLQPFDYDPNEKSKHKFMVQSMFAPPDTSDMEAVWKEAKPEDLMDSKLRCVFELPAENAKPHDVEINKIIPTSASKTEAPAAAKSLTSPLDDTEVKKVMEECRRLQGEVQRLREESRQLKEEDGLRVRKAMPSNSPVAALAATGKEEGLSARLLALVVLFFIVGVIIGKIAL

In doi:10.1101/2023.08.22.554218 one finds binding data, which are given here for four substances.

Test [1] has as its target T1, PDZD8-3×HA (endogenous PDZD8 of the Pdzd8-3×HA knock-in mouse) (mouse (endogenous in neocortex, knock-in)) (UniProt B9EJ80).
T1 sequence: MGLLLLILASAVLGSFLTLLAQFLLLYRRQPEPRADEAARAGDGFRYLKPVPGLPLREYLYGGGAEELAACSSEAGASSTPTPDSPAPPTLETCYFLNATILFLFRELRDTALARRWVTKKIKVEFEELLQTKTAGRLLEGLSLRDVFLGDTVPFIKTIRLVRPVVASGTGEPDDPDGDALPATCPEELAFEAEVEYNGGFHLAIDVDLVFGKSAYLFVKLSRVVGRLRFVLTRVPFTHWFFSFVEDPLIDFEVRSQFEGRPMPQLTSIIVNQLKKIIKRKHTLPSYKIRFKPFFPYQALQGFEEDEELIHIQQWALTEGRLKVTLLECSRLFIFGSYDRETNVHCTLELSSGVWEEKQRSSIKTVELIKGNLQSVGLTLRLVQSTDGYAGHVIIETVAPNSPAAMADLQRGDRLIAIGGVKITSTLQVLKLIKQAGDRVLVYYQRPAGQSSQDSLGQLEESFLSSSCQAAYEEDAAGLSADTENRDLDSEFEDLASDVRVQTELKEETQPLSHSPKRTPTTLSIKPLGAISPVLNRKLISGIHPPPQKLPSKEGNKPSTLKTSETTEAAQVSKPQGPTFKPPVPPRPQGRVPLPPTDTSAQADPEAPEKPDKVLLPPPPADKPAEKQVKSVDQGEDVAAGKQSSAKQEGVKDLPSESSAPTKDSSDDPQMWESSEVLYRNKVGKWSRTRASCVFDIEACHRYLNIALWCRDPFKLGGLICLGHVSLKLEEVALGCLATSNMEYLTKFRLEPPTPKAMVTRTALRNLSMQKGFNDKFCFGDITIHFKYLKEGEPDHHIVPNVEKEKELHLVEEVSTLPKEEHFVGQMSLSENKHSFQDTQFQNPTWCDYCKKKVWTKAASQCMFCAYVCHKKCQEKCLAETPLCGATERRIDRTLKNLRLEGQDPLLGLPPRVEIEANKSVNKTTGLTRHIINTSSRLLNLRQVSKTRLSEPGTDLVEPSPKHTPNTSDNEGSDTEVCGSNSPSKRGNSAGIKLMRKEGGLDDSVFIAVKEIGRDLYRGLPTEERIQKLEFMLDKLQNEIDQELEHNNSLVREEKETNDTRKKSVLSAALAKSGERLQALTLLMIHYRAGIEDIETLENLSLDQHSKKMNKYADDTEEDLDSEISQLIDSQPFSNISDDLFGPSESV
Briefly: affinity purification with mass spectrometry.

Test [2] concerns the target T2, PDZD8-TurboID (endogenous PDZD8 of PDZD8-TurboID KI HeLa cells) (human (endogenous in HeLa, knock-in)) (UniProt Q8NEN9).
T2 sequence: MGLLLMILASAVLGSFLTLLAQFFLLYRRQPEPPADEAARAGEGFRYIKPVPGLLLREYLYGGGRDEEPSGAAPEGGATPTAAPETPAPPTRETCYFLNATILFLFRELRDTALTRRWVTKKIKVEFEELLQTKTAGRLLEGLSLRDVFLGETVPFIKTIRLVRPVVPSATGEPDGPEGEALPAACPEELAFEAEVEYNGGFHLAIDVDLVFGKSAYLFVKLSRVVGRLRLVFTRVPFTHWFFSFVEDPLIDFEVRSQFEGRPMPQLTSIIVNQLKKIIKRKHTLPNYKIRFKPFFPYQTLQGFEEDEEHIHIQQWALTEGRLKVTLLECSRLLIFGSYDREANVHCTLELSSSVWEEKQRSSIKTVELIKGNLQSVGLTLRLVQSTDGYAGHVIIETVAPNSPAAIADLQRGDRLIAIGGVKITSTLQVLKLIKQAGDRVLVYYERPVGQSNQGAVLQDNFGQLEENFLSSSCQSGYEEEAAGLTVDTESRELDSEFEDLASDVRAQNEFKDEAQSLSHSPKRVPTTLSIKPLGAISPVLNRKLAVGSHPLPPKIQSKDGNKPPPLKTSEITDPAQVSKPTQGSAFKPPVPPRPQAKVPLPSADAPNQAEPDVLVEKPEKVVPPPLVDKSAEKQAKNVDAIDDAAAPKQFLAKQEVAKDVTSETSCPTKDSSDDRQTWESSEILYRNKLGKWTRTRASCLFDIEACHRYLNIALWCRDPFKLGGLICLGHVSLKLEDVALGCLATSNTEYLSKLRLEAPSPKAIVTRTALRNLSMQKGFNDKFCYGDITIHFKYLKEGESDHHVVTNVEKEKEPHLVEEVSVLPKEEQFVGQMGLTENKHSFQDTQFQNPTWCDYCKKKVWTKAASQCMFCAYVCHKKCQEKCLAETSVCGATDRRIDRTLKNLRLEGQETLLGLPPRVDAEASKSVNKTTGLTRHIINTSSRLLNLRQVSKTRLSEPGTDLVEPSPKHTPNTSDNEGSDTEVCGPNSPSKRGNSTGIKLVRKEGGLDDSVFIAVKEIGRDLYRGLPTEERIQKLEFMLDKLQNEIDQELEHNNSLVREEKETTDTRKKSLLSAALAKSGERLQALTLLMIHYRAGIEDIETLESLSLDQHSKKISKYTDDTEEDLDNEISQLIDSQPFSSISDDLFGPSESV
Description: proximity labelling.

In test [3] the target is T3, PDZD8-v5-TurboID (endogenous PDZD8 of Pdzd8-v5-TurboID KI Neuro2a cells) (mouse (endogenous in Neuro2a, knock-in)) (UniProt B9EJ80).
T3 sequence: T1 sequence
Briefly: proximity labelling.

As for “FK506 binding protein 8 (FKBP8), endogenous, mouse neocortex (from UniProt O35465 1-402)”, the binding result in test [1] is “binds”.
“FKBP8, endogenous, HeLa cells (from UniProt Q14318 1-412)”: the binding result in test [2] is “binds”.
On to “FKBP8, endogenous, Neuro2a cells (from UniProt O35465 1-402)”, for which the binding entry in test [3] is listed as “binds”.
With “VAPB, endogenous, mouse neocortex (from UniProt Q9QY76 1-243)”, the binding result in test [1] is “binds”.
